Assay results: US20110001093A1, “FULLERENE DERIVATIVE” (SUMITOMO CHEMICAL COMPANY LIMITED, priority 2007, published 2011)

Test: Organic thin film solar cell with poly(3-hexylthiophene) donor, photoelectric conversion efficiency (Table 2)
Settings: fullerene derivative as electron acceptor, equal weight to regioregular poly(3-hexylthiophene) lot 15409BE; AM1.5G, 100 mW/cm^2

## COC(=O)CCCC1(c2ccccc2)C23c4c5c6c7c8c9c(c%10c%11c2c2c%12c4c4c%13c5c5c7c7c8c8c%14c9c%10c9c%10c%11c2c2c%11c%12c4c4c%12c%13c5c5c7c7c8c8c%14c9c9c%10c2c2c%11c4c4c%12c5c7c5c8c9c2c45)C613 (stereo not shown) [[60] PCBM, [6,6]-phenyl C61-butyric acid methyl ester, reference compound]
  Photoelectric conversion efficiency (%): 2.3%
